Results are given in words; binding and its absence hold for the method and conditions named. Binding seen in cells or lysates may run through a third protein. Some results given as binding are weak or reduced against the parent protein; the word gives no strength.
Biological target: endogenous Smad4 of C2C12 cells (mouse) (UniProt P97471)
Test: co-IP from C2C12 whole lysates

Amino acid sequences for entries named in this document (tags omitted).
UniProt P97471: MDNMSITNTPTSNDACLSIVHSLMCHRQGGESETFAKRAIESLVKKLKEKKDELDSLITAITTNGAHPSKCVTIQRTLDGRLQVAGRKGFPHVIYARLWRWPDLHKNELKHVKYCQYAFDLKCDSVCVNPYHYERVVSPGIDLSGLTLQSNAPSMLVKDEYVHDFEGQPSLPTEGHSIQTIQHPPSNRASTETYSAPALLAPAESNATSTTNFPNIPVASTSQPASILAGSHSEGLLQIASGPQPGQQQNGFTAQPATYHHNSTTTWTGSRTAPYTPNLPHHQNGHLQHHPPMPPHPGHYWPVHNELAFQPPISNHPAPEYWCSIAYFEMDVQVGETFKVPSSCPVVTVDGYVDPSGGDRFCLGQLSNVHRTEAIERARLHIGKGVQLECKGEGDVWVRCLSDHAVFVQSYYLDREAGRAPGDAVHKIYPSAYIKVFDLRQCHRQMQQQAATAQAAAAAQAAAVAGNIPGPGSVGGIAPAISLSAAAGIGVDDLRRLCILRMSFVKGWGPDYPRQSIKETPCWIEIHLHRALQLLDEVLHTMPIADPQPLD

B1: endogenous cGKIβ of C2C12 cells (enzyme, mouse, UniProt P0C605-2 1-686, looked up)
chain: MGTLRDLQYALQEKIEELRQRDALIDELELELDQKDELIQKLQNELDKYRSVIRPATQQAQKQSASTLQGEPRTKRQAISAEPTAFDIQDLSHVTLPFYPKSPQSKDLIKEAILDNDFMKNLELSQIQEIVDCMYPVEYGKDSCIIKEGDVGSLVYVMEDGKVEVTKEGVKLCTMGPGKVFGELAILYNCTRTATVKTLVNVKLWAIDRQCFQTIMMRTGLIKHTEYMEFLKSVPTFQSLPDEILSKLADVLEETHYENGEYIIRQGARGDTFFIISKGQVNVTREDSPSEDPVFLRTLGKGDWFGEKALQGEDVRTANVIAAEAVTCLVIDRDSFKHLIGGLDDVSNKAYEDAEAKAKYEAEAAFFANLKLSDFNIIDTLGVGGFGRVELVQLKSEESKTFAMKILKKRHIVDTRQQEHIRSEKQIMQGAHSDFIVRLYRTFKDSKYLYMLMEACLGGELWTILRDRGSFEDSTTRFYTACVVEAFAYLHSKGIIYRDLKPENLILDHRGYAKLVDFGFAKKIGFGKKTWTFCGTPEYVAPEIILNKGHDISADYWSLGILMYELLTGSPPFSGPDPMKTYNIILRGIDMIEFPKKIAKNAANLIKKLCRDNPSERLGNLKNGVKDIQKHKWFEGFNWEGLRKGTLTPPIIPSVASPTDTSNFDSFPEDSDEPPPDDNSGWDIDF
binding: binds

From US20110045568A1, “METHOD FOR RESTORING BMP-RECEPTOR SIGNALING IN A CELL” (FREIE UNIVERSITÄT BERLIN, priority 2008, published 2011)
